The nature of the data set: Membrane permeability (Papp) across Caco-2 cell monolayers. The settings on record: human; Caco-2 monolayer, apical to basolateral; read-out: Papp (cm/s × 10^6) AP-to-BL. In kind it is in vitro ADME. For orientation: Passage across Caco-2 layers is used to estimate intestinal permeability.

For `CC(C)NCC(O)COc1ccc(CC(N)=O)cc1` (stereo not shown) [Atenolol, reference compound], the Papp A→B came to 1.3 ± 0.2 ×10⁻⁶ cm/s.

These data come from US6770638B2, “Tetrahydroindolone and purine derivatives linked to arylpiperazines” (Spectrum Pharmaceuticals, Inc., priority 2001, dated 2004).
